Some targets named below: CDK7 (UniProt P50613); CDK9 (UniProt P50750); CHEK2 (UniProt O96017); CSF1R (UniProt P07333); CSK (UniProt P41240); CSNK1A1 (UniProt P48729); CSNK1D (UniProt P48730); DDR1 (UniProt Q08345); DYRK1B (UniProt Q9Y463); DYRK2 (UniProt Q92630).
Holding throughout (assay): kinase-Nluc reporter destabilization hit call (1 = scored as downregulated) (binary); higher = compound decreases kinase abundance
Details in all cases: K562, 2-18 h

Sequences of proteins named here, by UniProt entry; tags and fusion partners are left off. A change or cut given only in a name is not applied to a line headed by its entry.
UniProt P50613: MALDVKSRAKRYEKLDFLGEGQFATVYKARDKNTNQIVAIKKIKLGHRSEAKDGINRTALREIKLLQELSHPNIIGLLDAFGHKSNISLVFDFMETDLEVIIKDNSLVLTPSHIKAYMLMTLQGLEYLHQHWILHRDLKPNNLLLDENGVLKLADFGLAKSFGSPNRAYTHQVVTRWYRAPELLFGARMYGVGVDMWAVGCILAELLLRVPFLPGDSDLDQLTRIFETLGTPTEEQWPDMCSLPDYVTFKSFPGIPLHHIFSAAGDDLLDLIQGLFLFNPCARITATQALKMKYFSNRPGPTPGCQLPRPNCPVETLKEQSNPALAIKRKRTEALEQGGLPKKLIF
UniProt P50750, whole entry: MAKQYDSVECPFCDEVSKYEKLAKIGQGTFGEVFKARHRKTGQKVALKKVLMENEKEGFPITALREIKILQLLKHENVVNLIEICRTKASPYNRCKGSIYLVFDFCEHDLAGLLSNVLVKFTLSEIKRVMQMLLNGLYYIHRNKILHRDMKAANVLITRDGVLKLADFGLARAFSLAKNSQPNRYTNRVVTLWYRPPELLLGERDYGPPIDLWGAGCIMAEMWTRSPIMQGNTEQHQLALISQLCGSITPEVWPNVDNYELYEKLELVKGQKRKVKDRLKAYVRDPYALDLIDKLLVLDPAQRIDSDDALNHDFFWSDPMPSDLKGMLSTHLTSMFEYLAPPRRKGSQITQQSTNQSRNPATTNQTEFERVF
UniProt O96017, whole entry: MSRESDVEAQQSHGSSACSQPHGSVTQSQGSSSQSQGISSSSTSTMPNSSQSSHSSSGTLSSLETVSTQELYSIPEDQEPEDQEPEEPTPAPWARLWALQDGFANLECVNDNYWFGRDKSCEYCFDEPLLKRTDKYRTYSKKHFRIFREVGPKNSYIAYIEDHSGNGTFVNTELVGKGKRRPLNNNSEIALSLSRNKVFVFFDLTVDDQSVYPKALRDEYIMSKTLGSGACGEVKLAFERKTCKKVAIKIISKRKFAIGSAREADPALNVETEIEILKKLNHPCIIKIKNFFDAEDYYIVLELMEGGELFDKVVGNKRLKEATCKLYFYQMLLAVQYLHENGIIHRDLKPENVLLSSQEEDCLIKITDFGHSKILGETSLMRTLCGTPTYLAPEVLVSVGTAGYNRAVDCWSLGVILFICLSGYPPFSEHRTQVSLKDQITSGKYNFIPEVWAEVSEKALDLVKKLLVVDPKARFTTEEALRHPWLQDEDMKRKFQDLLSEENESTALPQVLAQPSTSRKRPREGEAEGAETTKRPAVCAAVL
UniProt P07333, whole entry: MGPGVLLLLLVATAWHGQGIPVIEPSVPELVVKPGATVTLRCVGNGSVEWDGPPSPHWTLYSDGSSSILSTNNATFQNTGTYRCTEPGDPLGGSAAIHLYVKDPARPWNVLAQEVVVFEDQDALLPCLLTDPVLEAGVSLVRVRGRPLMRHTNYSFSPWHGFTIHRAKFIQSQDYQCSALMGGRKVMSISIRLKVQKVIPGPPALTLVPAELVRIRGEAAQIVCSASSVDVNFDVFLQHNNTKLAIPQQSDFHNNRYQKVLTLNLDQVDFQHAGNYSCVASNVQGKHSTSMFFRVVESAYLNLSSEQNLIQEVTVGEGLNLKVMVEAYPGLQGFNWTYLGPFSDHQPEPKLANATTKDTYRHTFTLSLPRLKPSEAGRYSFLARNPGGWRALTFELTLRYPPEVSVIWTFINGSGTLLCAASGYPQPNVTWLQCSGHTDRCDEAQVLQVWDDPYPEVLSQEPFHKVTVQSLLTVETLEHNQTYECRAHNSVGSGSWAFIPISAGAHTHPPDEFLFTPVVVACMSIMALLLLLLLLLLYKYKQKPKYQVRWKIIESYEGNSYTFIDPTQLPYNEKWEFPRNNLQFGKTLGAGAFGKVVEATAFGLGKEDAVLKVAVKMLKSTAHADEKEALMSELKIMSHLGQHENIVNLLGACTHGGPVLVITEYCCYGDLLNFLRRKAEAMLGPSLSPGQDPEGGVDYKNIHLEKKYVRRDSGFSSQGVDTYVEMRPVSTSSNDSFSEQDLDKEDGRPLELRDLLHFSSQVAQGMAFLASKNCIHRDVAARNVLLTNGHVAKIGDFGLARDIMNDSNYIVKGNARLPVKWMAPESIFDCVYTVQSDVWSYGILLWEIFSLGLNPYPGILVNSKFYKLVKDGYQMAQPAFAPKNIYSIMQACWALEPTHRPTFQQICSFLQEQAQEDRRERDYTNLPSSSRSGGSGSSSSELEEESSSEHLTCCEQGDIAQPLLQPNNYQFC
UniProt P41240: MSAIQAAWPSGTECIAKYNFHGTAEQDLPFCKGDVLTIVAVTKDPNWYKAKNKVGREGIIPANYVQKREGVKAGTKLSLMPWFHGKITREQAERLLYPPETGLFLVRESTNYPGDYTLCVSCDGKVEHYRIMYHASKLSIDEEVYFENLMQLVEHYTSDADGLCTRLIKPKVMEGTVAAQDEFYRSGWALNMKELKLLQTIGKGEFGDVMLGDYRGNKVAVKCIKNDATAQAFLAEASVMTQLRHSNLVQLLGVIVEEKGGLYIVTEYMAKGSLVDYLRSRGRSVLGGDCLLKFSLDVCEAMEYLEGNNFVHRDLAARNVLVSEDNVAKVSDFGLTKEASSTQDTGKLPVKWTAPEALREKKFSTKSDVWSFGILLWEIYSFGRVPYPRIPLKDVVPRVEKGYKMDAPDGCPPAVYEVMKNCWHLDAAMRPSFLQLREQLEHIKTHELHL
UniProt P48729: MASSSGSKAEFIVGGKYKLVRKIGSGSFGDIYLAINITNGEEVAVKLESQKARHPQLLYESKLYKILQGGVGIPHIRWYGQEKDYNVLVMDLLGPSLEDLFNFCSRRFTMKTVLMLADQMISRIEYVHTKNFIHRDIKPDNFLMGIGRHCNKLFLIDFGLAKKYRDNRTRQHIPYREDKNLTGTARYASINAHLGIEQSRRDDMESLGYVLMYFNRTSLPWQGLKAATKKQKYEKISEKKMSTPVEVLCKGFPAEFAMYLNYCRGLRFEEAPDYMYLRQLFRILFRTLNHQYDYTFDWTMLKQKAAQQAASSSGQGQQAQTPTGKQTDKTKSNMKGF
UniProt P48730: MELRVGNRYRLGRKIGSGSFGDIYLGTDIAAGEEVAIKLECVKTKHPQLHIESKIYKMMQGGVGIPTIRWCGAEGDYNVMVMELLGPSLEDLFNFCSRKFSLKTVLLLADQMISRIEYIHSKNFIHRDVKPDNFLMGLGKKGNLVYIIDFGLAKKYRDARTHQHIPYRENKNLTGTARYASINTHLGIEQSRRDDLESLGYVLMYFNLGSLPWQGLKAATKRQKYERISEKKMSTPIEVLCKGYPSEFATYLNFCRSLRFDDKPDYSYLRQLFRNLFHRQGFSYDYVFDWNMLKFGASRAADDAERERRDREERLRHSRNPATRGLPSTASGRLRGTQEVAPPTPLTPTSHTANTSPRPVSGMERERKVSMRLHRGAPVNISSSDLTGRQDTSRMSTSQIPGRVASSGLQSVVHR
UniProt Q08345: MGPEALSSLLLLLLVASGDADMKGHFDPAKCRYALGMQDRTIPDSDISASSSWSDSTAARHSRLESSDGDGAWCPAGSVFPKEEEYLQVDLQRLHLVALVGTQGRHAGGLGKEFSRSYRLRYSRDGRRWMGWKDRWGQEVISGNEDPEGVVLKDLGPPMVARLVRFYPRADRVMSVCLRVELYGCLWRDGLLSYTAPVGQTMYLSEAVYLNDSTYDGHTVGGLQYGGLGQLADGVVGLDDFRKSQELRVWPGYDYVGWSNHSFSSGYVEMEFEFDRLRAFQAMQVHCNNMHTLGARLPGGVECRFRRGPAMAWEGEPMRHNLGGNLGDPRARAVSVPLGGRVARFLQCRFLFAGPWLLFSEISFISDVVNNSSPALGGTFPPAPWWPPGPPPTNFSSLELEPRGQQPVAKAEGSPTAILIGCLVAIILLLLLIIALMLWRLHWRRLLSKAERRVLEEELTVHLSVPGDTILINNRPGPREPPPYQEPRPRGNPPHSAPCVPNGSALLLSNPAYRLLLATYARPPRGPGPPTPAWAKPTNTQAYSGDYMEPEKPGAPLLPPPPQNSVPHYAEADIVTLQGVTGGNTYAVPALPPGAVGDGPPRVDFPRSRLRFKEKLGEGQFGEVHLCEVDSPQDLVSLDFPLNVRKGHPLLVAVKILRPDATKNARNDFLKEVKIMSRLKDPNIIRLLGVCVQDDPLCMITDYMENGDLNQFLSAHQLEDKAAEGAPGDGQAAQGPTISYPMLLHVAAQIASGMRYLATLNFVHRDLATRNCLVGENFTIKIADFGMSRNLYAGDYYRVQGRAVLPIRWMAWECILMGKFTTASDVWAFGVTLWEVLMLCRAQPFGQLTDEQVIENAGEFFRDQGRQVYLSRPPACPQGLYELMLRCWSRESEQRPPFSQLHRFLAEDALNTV
UniProt Q9Y463, whole entry, looked up: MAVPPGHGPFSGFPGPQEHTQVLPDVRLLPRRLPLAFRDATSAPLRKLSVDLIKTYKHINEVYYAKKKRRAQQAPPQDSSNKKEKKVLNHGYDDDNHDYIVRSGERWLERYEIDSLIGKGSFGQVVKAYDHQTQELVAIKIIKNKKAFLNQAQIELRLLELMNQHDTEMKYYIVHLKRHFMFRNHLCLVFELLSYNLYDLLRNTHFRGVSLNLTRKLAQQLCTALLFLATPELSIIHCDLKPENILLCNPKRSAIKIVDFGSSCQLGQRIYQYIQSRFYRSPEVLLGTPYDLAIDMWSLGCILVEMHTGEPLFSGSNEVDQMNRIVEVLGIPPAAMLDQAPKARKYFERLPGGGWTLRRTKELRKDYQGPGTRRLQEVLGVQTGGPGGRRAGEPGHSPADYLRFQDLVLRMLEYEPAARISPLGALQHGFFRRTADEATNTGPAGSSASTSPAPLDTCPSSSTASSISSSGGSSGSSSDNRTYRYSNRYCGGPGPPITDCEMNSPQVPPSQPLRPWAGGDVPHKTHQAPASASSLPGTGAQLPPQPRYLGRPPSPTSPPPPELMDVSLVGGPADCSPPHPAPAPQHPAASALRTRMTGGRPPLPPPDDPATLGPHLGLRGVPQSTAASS
UniProt Q92630: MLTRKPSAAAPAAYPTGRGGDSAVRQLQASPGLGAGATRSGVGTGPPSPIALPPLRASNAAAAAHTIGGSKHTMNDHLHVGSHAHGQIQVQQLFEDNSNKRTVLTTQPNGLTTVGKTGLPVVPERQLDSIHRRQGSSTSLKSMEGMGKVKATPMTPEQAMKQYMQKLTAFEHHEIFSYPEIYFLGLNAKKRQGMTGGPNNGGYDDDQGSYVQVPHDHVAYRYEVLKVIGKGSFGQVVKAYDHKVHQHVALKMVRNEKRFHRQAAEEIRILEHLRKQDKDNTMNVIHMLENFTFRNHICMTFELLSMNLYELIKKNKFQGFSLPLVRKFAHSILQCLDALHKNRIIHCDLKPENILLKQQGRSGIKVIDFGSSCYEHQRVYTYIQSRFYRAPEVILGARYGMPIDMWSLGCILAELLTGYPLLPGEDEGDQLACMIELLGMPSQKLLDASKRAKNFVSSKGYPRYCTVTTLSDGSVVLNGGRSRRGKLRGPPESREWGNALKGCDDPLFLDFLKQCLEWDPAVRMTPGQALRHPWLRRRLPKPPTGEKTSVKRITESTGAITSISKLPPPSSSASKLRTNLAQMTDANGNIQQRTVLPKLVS

Structures can show the parent of a compound that is named as a salt. The list shows a part of the results. The calls rarely recur for the same compound in another form.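 In K562 cells expressing nanoluciferase-fused kinases, luminescence was recorded at 4 h intervals between 2 and 18 h, normalized as percent of control with DMSO at 100% and a positive control at 0%. A significant (2 sigma) signal drop marks a time point as decreased. The authors' rule for a hit is not shown and takes in more than the number of time points.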

Turning to `C=CC(=O)Nc1cc(Nc2nccc(-c3cn(C)c4ccccc34)n2)c(OC)cc1N(C)CCN(C)C` [Osimertinib mesylate], the “kinase-Nluc reporter destabilization hit call” value with CDK7 (2.5 µM), with CDK9 (2.5 µM), with CHEK2 (2.5 µM), in the test with CSF1R (2.5 µM), in the test with CSK (2.5 µM) and with CSNK1A1 (2.5 µM) was inactive: 0 throughout. Moreover, the “kinase-Nluc reporter destabilization hit call” value in the test with CSNK1D (2.5 µM), with DDR1 (2.5 µM), in the test with DYRK1B (2.5 µM) and in the test with DYRK2 (2.5 µM) was inactive: 0 in each case.
As for `CC(=O)Nc1cccc(-n2c(=O)n(C3CC3)c(=O)c3c(Nc4ccc(I)cc4F)n(C)c(=O)c(C)c32)c1` [Trametinib], the “kinase-Nluc reporter destabilization hit call” value was inactive: 0 in the test with CDK7 (10 µM); active: 1 with CDK9 (10 µM); inactive: 0 with CHEK2 (10 µM); inactive: 0 with CSF1R (10 µM); inactive: 0 in the test with CSK (10 µM); inactive: 0 with CSNK1A1 (10 µM). In addition, the “kinase-Nluc reporter destabilization hit call” value in the test with CSNK1D (10 µM), with DDR1 (10 µM), in the test with DYRK1B (10 µM) and with DYRK2 (10 µM) was inactive: 0 each time.
With `Cc1cccc(-c2[nH]c(CNc3ccccc3F)nc2-c2ccc3ncnn3c2)n1` [Vactosertib (Hydrochloride)], the “kinase-Nluc reporter destabilization hit call” value with CDK7 (2.5 µM), with CDK9 (2.5 µM), with CHEK2 (2.5 µM), in the test with CSF1R (2.5 µM), with CSK (2.5 µM) and in the test with CSNK1A1 (2.5 µM) was inactive: 0 in each case. Further, the “kinase-Nluc reporter destabilization hit call” value in the test with CSNK1D (2.5 µM), in the test with DDR1 (2.5 µM), with DYRK1B (2.5 µM) and with DYRK2 (2.5 µM) was inactive: 0 throughout.
For the molecule `Clc1ccc(C2(c3ccc(-c4cn[nH]c4)cc3)CCNCC2)cc1` [AT7867 (dihydrochloride)], the “kinase-Nluc reporter destabilization hit call” value with CDK7 (2.5 µM), with CDK9 (2.5 µM), in the test with CHEK2 (2.5 µM), with CSF1R (2.5 µM), with CSK (2.5 µM) and with CSNK1A1 (2.5 µM) was inactive: 0 in each case. In addition, the “kinase-Nluc reporter destabilization hit call” value in the test with CSNK1D (2.5 µM), with DDR1 (2.5 µM), with DYRK1B (2.5 µM) and with DYRK2 (2.5 µM) was inactive: 0 throughout.
Take `N#CC[C@H](C1CCCC1)n1cc(-c2ncnc3[nH]ccc23)cn1` [Ruxolitinib]: the “kinase-Nluc reporter destabilization hit call” value with CDK7 (10 µM), with CDK9 (10 µM), in the test with CHEK2 (10 µM), with CSF1R (10 µM), in the test with CSK (10 µM) and with CSNK1A1 (10 µM) was inactive: 0 in each case. The “kinase-Nluc reporter destabilization hit call” value in the test with CSNK1D (10 µM), in the test with DDR1 (10 µM), with DYRK1B (10 µM) and with DYRK2 (10 µM) was inactive: 0 in each case.
On to `c1cc(-c2cnn3cc(-c4ccc(OCCN5CCCCC5)cc4)cnc23)ccn1` [Dorsomorphin], for which the “kinase-Nluc reporter destabilization hit call” value with CDK7 (2.5 µM), with CDK9 (2.5 µM), in the test with CHEK2 (2.5 µM), in the test with CSF1R (2.5 µM), in the test with CSK (2.5 µM) and in the test with CSNK1A1 (2.5 µM) was inactive: 0 in each case. The “kinase-Nluc reporter destabilization hit call” value in the test with CSNK1D (2.5 µM), in the test with DDR1 (2.5 µM), with DYRK1B (2.5 µM) and in the test with DYRK2 (2.5 µM) was inactive: 0 in each case.
Regarding `Cn1ncc(Cl)c1-c1cc(C(=O)N[C@H](CN)Cc2cccc(F)c2)sc1Cl` [Afuresertib], the “kinase-Nluc reporter destabilization hit call” value in the test with CDK7 (10 µM), with CDK9 (10 µM), in the test with CHEK2 (10 µM), with CSF1R (10 µM), with CSK (10 µM) and with CSNK1A1 (10 µM) was inactive: 0 throughout. For the same molecule, the “kinase-Nluc reporter destabilization hit call” value with CSNK1D (10 µM), in the test with DDR1 (10 µM), with DYRK1B (10 µM) and in the test with DYRK2 (10 µM) was inactive: 0 each time.
For `FC(F)(F)c1ccc(CNc2ccc(Cc3c[nH]c4ncc(Cl)cc34)cn2)cn1` [Pexidartinib (hydrochloride)], the “kinase-Nluc reporter destabilization hit call” value in the test with CDK7 (10 µM), with CDK9 (10 µM), with CHEK2 (10 µM), with CSF1R (10 µM), with CSK (10 µM) and with CSNK1A1 (10 µM) was inactive: 0 each time. For the same molecule, the “kinase-Nluc reporter destabilization hit call” value with CSNK1D (10 µM), with DDR1 (10 µM), with DYRK1B (10 µM) and with DYRK2 (10 µM) was inactive: 0 each time.
In the case of `Cc1cccc(/C=N/Nc2cc(N3CCOCC3)nc(OCCc3ccccn3)n2)c1` [Apilimod], the “kinase-Nluc reporter destabilization hit call” value in the test with CDK7 (2.5 µM), with CDK9 (2.5 µM), in the test with CHEK2 (2.5 µM), in the test with CSF1R (2.5 µM), with CSK (2.5 µM) and with CSNK1A1 (2.5 µM) was inactive: 0 throughout. Further, the “kinase-Nluc reporter destabilization hit call” value in the test with CSNK1D (2.5 µM), with DDR1 (2.5 µM), with DYRK1B (2.5 µM) and with DYRK2 (2.5 µM) was inactive: 0 in each case.
In the case of `COc1cc2c(cc1OC)-c1c(C)c3ccc(OC)c(OC)c3c[n+]1CC2` [Dehydrocorydaline], the “kinase-Nluc reporter destabilization hit call” value with CDK7 (10 µM), with CDK9 (10 µM), in the test with CHEK2 (10 µM), with CSF1R (10 µM), in the test with CSK (10 µM) and with CSNK1A1 (10 µM) was inactive: 0 throughout. Moreover, the “kinase-Nluc reporter destabilization hit call” value in the test with CSNK1D (10 µM), in the test with DDR1 (10 µM), in the test with DYRK1B (10 µM) and with DYRK2 (10 µM) was inactive: 0 in each case.
As for `CN(C)C(=N)NC(=N)N` [Metformin (hydrochloride)], the “kinase-Nluc reporter destabilization hit call” value in the test with CDK7 (10 µM), with CDK9 (10 µM), with CHEK2 (10 µM), in the test with CSF1R (10 µM), with CSK (10 µM) and with CSNK1A1 (10 µM) was inactive: 0 in each case. Moreover, the “kinase-Nluc reporter destabilization hit call” value with CSNK1D (10 µM), in the test with DDR1 (10 µM), in the test with DYRK1B (10 µM) and in the test with DYRK2 (10 µM) was inactive: 0 in each case.
For the molecule `COc1ccc(S(=O)(=O)Nc2ccccc2CN(C)C/C=C/c2ccc(Cl)cc2)cc1` [KN-92 (hydrochloride)], the “kinase-Nluc reporter destabilization hit call” value with CDK7 (2.5 µM), with CDK9 (2.5 µM), with CHEK2 (2.5 µM), with CSF1R (2.5 µM), with CSK (2.5 µM) and with CSNK1A1 (2.5 µM) was inactive: 0 each time. The “kinase-Nluc reporter destabilization hit call” value with CSNK1D (2.5 µM), with DDR1 (2.5 µM), in the test with DYRK1B (2.5 µM) and with DYRK2 (2.5 µM) was inactive: 0 each time.
Regarding `Nc1cncc(-c2cn3ccnc3c(Nc3ccc(N4CCN(C5COC5)CC4)cc3)n2)n1` [Lanraplenib (succinate)], the “kinase-Nluc reporter destabilization hit call” value with CDK7 (10 µM), with CDK9 (10 µM), with CHEK2 (10 µM), with CSF1R (10 µM), with CSK (10 µM) and with CSNK1A1 (10 µM) was inactive: 0 throughout. The “kinase-Nluc reporter destabilization hit call” value with CSNK1D (10 µM), with DDR1 (10 µM), with DYRK1B (10 µM) and with DYRK2 (10 µM) was inactive: 0 throughout.
On to `C#Cc1cccc(Nc2ncnc3cc(OCCOC)c(OCCO)cc23)c1` [Desmethyl Erlotinib (hydrochloride)], for which the “kinase-Nluc reporter destabilization hit call” value with CDK7 (10 µM), with CDK9 (10 µM), with CHEK2 (10 µM), in the test with CSF1R (10 µM), with CSK (10 µM) and with CSNK1A1 (10 µM) was inactive: 0 throughout. The “kinase-Nluc reporter destabilization hit call” value in the test with CSNK1D (10 µM), with DDR1 (10 µM), with DYRK1B (10 µM) and in the test with DYRK2 (10 µM) was inactive: 0 throughout.
Take `O=C(Nc1ccncc1)Nc1ccc(-c2nc(N3CCOCC3)nc(N3C4CCC3COC4)n2)cc1`: the “kinase-Nluc reporter destabilization hit call” value with CDK7 (10 µM), with CDK9 (10 µM), with CHEK2 (10 µM), with CSF1R (10 µM), with CSK (10 µM) and with CSNK1A1 (10 µM) was inactive: 0 throughout. Besides, the “kinase-Nluc reporter destabilization hit call” value with CSNK1D (10 µM), with DDR1 (10 µM), with DYRK1B (10 µM) and in the test with DYRK2 (10 µM) was inactive: 0 in each case.

Source of the values: the supplement of paper PMC12823440, “Inhibitors supercharge kinase turnover through native proteolytic circuits” (Nature, 2025).
